Experimental data as given in patent US6444666B1, “Triazolopyridazine Derivatives for treating anxiety and enhancing cognition” (Merck Sharp & Dohme Ltd., priority 1997, dated 2002).
Some entries share one result that the patent states for a list of compounds.

Chains of the proteins cited; added tags and fusions are not shown. Residues count along the entry.
UniProt P18507, 40-475: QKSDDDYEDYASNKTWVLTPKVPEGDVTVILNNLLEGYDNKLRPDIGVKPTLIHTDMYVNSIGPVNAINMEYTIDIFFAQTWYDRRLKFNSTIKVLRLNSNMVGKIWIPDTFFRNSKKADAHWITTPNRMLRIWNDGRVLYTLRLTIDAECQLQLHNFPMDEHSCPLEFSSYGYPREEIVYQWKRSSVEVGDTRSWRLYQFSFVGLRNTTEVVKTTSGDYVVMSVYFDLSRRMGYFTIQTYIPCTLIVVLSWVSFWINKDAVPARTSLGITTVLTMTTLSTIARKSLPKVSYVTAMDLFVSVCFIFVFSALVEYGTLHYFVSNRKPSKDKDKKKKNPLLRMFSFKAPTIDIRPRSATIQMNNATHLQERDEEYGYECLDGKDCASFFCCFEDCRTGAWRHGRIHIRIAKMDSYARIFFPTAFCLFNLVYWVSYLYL
UniProt P31644, 32-462: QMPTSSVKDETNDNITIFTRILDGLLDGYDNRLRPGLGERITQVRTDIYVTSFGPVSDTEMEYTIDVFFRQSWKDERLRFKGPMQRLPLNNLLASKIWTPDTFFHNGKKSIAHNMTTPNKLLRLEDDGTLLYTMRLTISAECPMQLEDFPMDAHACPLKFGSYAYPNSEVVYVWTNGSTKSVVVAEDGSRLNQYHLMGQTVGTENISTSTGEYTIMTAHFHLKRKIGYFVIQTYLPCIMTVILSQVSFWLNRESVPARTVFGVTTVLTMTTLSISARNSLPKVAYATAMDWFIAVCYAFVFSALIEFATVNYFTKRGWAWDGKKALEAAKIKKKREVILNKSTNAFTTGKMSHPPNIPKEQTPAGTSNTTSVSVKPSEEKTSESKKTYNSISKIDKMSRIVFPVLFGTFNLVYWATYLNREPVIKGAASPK

Target: T1, α5 subunit (α5β3γ2 cells) (Homo sapiens, UniProt P18507+P31644)
T1 construct: expressed in transfected cells; host or cells: Ltk- cells are stated for the α2/α3 lines
Assay: [3H]-flumazenil displacement binding assay, GABAA α5β3γ2 cells
Conditions: [3H]-flumazenil final concentration 1.0 nM

Structure (SMILES)	Ki [nM]
Cc1cc(-c2nnc3cc(C(C)(C)C)c(OCc4ccccn4)nn23)no1 [Example 5, 7-t-Butyl-3-(5-methylisoxazol-3-yl)-6-(2-pyridylmethyloxy)-1,2,4-triazolo[4,3-b] pyridazine]	≤ 100
Cc1cc(-c2nnc3cc(C(C)(C)C)c(OCc4ncn(C)n4)nn23)no1 [Example 6, 7-t-Butyl-3-(5-methylisoxazol-3-yl)-6-(1-methyl-1.2 4-triazol-3-yl)methyloxy-1,2,4-triazolo[4,3-b]pyridazine]	≤ 100
Cc1cc(-c2nnc3cc(C(C)(C)C)c(OCc4cn(C)nn4)nn23)no1 [Example 7, 7-t-Butyl-3-(5-methylisoxazol-3-yl)-6-(1-methyl-1.2.3-triazol-4-yl)methyloxy-1,2,4-triazolo[4,3-b]pyridazine]	≤ 100
